No constants are given. Whether binding was seen depends on the method and setting. Binding seen in cells or lysates may run through a third protein. Some results given as binding are weak or reduced against the parent protein; the word gives no strength.

Protein sequences, listed by entry. Tags and fused reporters are not part of them.
UniProt P43006: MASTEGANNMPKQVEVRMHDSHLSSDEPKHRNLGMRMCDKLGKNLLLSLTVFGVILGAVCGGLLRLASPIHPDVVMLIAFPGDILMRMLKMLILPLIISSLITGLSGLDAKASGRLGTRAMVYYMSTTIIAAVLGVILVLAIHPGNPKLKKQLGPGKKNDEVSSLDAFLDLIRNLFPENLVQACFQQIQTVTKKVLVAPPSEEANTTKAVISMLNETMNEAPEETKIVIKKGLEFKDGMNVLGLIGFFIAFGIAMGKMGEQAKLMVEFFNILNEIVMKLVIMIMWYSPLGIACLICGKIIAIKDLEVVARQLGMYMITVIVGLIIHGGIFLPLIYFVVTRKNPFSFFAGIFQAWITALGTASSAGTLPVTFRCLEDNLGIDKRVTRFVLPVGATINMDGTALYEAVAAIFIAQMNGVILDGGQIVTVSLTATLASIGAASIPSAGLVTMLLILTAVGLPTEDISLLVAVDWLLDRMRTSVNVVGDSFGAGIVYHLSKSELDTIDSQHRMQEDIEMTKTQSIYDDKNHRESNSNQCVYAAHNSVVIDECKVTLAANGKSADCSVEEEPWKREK

The target in this assay is T1, O-GlcNAc transferase (UniProt Q8CGY8).
T1 sequence: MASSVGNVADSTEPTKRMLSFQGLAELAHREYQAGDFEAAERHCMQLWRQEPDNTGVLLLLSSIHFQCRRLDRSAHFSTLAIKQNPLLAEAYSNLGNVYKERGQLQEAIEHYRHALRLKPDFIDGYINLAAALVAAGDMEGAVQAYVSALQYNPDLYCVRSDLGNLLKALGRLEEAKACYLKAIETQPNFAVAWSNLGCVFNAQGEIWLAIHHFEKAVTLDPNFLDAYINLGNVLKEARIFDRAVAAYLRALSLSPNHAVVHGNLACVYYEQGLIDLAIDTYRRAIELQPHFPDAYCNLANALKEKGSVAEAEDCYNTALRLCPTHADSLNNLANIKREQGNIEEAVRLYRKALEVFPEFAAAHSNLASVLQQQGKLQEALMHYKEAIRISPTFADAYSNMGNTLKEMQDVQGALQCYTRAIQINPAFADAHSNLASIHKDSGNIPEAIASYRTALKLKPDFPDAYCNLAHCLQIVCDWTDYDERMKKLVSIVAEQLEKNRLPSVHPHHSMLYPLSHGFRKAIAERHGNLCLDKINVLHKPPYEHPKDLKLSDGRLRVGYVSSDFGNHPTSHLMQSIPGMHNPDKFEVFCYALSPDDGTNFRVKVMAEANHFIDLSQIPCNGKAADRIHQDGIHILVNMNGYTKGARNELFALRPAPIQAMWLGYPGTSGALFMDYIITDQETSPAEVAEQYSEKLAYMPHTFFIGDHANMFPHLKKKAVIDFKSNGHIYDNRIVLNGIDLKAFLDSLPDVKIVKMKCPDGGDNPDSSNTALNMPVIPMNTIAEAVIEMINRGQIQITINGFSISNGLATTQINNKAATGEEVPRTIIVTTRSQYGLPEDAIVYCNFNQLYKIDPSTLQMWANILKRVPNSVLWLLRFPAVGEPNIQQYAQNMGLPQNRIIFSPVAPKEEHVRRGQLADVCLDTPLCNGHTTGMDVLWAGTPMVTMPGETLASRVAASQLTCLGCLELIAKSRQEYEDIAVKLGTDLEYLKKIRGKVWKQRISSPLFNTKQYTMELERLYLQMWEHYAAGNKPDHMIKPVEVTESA
Put plainly: co-IP; lysate of cultured astrocytes, endogenous proteins; which protein was precipitated is not told in the text shown.

As for “glutamate transporter-1 (from UniProt P43006 1-572)”, the binding entry is reported as “binds”.

For the origin of these results see paper PMC10065078.
